PubChem BioAssay (NCATS)
The inconclusive results got no clear call from the source; some entries with a clear call stand among them for comparison. For some assays here: Potencies of inconclusive entries are doubtful fits and often do not repeat. Active and inactive are the calls of the source. Calls follow the shape of the dose curve; as a rule, active = well fitted curve in the direction sought with a large enough effect; inconclusive = small, poorly fitted or top-dose-only effect, or another doubt; inactive = no such curve, though single readings can be large; an effect the other way counts as inactive or inconclusive.

What was measured:
[1] = Quantitative High-Throughput drug screen in 47 multiple myeloma cell lines against the NCATS MIPE library collection: INA6_PLB cell viability assay (AID 1918965; also: potency is read from the fitted curve at half-maximal effect; nearly all actives have a fitted effect of over 55% in size)
Method in brief: (§1)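 Myeloma cell lines, 500 cells per well, exposed to MIPE 4.0 library compounds for 48 h at 37C, 5% CO2. Viability from ATP by CellTiter-Glo luminescence; normalised to DMSO (100%) and media-only (0%) wells.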

[2] = Quantitative High-Throughput drug screen in 47 multiple myeloma cell lines against the NCATS MIPE library collection: JJN3_DSMZ cell viability assay (AID 1918966; also: nearly all actives have a fitted effect of over 50% in size); conditions: JJN3 myeloma cells viability, CellTiter-Glo ATP, 48 h; viability, % of DMSO: at 45.8 µM (top of the series)
Method in brief: (§2)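 We plated 500 myeloma cells per well, pinned in MIPE 4.0 compounds, and incubated for 48 hours at 37C. ATP was then quantified with CellTiter-Glo, with DMSO and media-only wells defining 100% and 0%.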

[3] = Quantitative High-Throughput drug screen in 47 multiple myeloma cell lines against the NCATS MIPE library collection: KMS27_JCRB cell viability assay (AID 1918970); also: potency is read from the fitted curve at half-maximal effect; nearly all actives have a fitted effect of over 30% in size
Method in brief: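 CellTiter-Glo luminescence after 48 h drug exposure at 37 °C; 500 cells/well, 1536-well format, pin-tool compound addition; DMSO = 100%, media-only = 0% viability.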

[4] = Quantitative High-Throughput drug screen in 47 multiple myeloma cell lines against the NCATS MIPE library collection: KMS12BM_JCRB cell viability assay (AID 1918971); also: nearly all actives have a fitted effect of over 35% in size
Method in brief: (§3)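 qHTS of the MIPE 4.0 collection: 500 myeloma cells/well, 48 h drug exposure at 37C in 5% CO2, then CellTiter-Glo for 5 min at room temperature before luminescence reading.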

[5] = Quantitative High-Throughput drug screen in 47 multiple myeloma cell lines against the NCATS MIPE library collection: KMS12PE_JCRB cell viability assay (AID 1918972); also: nearly all actives have a fitted effect of over 30% in size
Method in brief: as §1

[6] = Quantitative High-Throughput drug screen in 47 multiple myeloma cell lines against the NCATS MIPE library collection: KMS20_JCRB cell viability assay (AID 1918973); conditions: CellTiter-Glo ATP, 48 h; viability (% of DMSO): at 45.8 µM (top of the series); also: potency is read from the fitted curve at half-maximal effect; nearly all actives have a fitted effect of over 45% in size
Method in brief: as §2

[7] = Quantitative High-Throughput drug screen in 47 multiple myeloma cell lines against the NCATS MIPE library collection: KMS21BM_JCRB cell viability assay (AID 1918974)
Method in brief: as §2

[8] = Quantitative High-Throughput drug screen in 47 multiple myeloma cell lines against the NCATS MIPE library collection: KMS26_JCRB cell viability assay (AID 1918975); conditions: KMS26 myeloma cells viability, CellTiter-Glo ATP, 48 h; viability (% of DMSO): at 45.8 µM (top of the series); also: potency is read from the fitted curve at half-maximal effect; nearly all actives have a fitted effect of over 45% in size
Method in brief: as §3

[9] = Quantitative High-Throughput drug screen in 47 multiple myeloma cell lines against the NCATS MIPE library collection: MMM1_PLB cell viability assay (AID 1918976); also: potency is read from the fitted curve at half-maximal effect; nearly all actives have a fitted effect of over 35% in size
Method in brief: (§4)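 500 cells/well per myeloma line exposed to pinned MIPE 4.0 compounds for 48 h at 37 °C, 5% CO2. Viability read as ATP by CellTiter-Glo luminescence, normalised to DMSO-only (100%) and media-only (0%) wells.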

[10] = Quantitative High-Throughput drug screen in 47 multiple myeloma cell lines against the NCATS MIPE library collection: MOLP8_DSMZ cell viability assay (AID 1918977); conditions: MOLP8 myeloma viability, CellTiter-Glo ATP luminescence, 48 h; viability (% of control): at 45.8 µM (top of the series); also: nearly all actives have a fitted effect of over 45% in size
Method in brief: as §4

[11] = Quantitative High-Throughput drug screen in 47 multiple myeloma cell lines against the NCATS MIPE library collection: MM1S_ATCC cell viability assay (AID 1918980); also: nearly all actives have a fitted effect of over 45% in size
Method in brief: as §4

[12] = Quantitative High-Throughput drug screen in 47 multiple myeloma cell lines against the NCATS MIPE library collection: MM1R_ATCC cell viability assay (AID 1918981); also: nearly all actives have a fitted effect of over 35% in size
Method in brief: as §4

[13] = Quantitative High-Throughput drug screen in 47 multiple myeloma cell lines against the NCATS MIPE library collection: L363_DSMZ cell viability assay (AID 1918984); conditions: L363 myeloma viability, CellTiter-Glo ATP luminescence, 48 h; viability (% of control): at 45.8 µM (top of the series); also: nearly all actives have a fitted effect of over 40% in size
Method in brief: as §4

[14] = Quantitative High-Throughput drug screen in 47 multiple myeloma cell lines against the NCATS MIPE library collection: KMS34_JCRB cell viability assay (AID 1918985); also: nearly all actives have a fitted effect of over 40% in size
Method in brief: as §4

[15] = Quantitative High-Throughput drug screen in 47 multiple myeloma cell lines against the NCATS MIPE library collection: OCIMY5_PLB cell viability assay (AID 1918988); also: potency is read from the fitted curve at half-maximal effect; nearly all actives have a fitted effect of over 65% in size
Method in brief: as §4

[16] = Quantitative High-Throughput drug screen in 47 multiple myeloma cell lines against the NCATS MIPE library collection: OPM1_PLB cell viability assay (AID 1918989); also: potency is read from the fitted curve at half-maximal effect; nearly all actives have a fitted effect of over 40% in size
Method in brief: as §4

[17] = Quantitative High-Throughput drug screen in 47 multiple myeloma cell lines against the NCATS MIPE library collection: SKMM1_PLB cell viability assay (AID 1919863); conditions: SKMM1 myeloma viability, CellTiter-Glo ATP, 48 h; viability: hits give low values; also: nearly all actives have a fitted effect of over 35% in size
Method in brief: as §4

[18] = Quantitative High-Throughput drug screen in 47 multiple myeloma cell lines against the NCATS MIPE library collection: XG1_PLB cell viability assay (AID 1919866)
Method in brief: as §4

[19] = Quantitative High-Throughput drug screen in 47 multiple myeloma cell lines against the NCATS MIPE library collection: VP6_DJ cell viability assay (AID 1919867); also: potency is read from the fitted curve at half-maximal effect; nearly all actives have a fitted effect of over 40% in size
Method in brief: as §4

[20] = Quantitative High-Throughput drug screen in 47 multiple myeloma cell lines against the NCATS MIPE library collection: UTMC2_PLB cell viability assay (AID 1919868); conditions: CellTiter-Glo ATP luminescence, 48 h; viability (% of DMSO control): at 45.8 µM (top of the series); also: potency is read from the fitted curve at half-maximal effect; nearly all actives have a fitted effect of over 55% in size
Method in brief: as §4

[21] = Quantitative High-Throughput drug screen in 47 multiple myeloma cell lines against the NCATS MIPE library collection: PE2_PLB cell viability assay (AID 1919869); also: nearly all actives have a fitted effect of over 35% in size
Method in brief: as §4

[22] = Quantitative High-Throughput drug screen in 47 multiple myeloma cell lines against the NCATS MIPE library collection: KMS11_JCRBsus cell viability assay (AID 1919873); also: potency is read from the fitted curve at half-maximal effect; nearly all actives have a fitted effect of over 50% in size
Method in brief: as §4

[23] = tested on: Hek293T; test: Primary qHTS to identify gynecologic anti-cancer compounds using libraries of approved drugs and bioactive compounds (AID 1345084); conditions: Gynecologic cancer cell panel viability, ATPlite luminescence, 48 h, control line for the selectivity index; series mostly up to 57.5 µM; also: nearly all actives have a fitted effect of over 55% in size; also: potency is read from the fitted curve at half-maximal effect
Method in brief: (§5)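 Cytotoxicity screen measuring ATP content by luciferase luminescence. Each compound is applied at five concentrations for 48 h at 37 C with 5% CO2.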

[24] = tested on: PA-1; test: as above; conditions: Gynecologic cancer cell panel viability, ATPlite luminescence, 48 h; series mostly up to 57.5 µM
Method in brief: as §5

[25] = tested on: SKOV3; test: as above; conditions: Gynecologic cancer cell panel viability, ATPlite luminescence, 48 h; series mostly up to 57.5 µM
Method in brief: as §5

[26] = tested on: CP215; test: qHTS profiling for inhibitors of Plasmodium falciparum proliferation (AID 504749); also: nearly all actives have a fitted effect of over 60% in size; also: potency is read from the fitted curve at half-maximal effect; conditions: P. falciparum in erythrocytes, SYBR Green DNA, 72 h; series mostly up to 28.7 µM
Method in brief: (§6)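 P. falciparum-infected erythrocytes (0.3% parasitemia, 2.5% hematocrit) incubated with compound 72 h at 37 C, 5% CO2. Parasite DNA detected by SYBR Green after lysis, overnight at room temperature; normalised to 0.29 uM artemisinin and DMSO.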

[27] = tested on: CP260; test: as above; conditions: P. falciparum in erythrocytes, SYBR Green DNA, 72 h; series mostly up to 28.7 µM
Method in brief: as §6

[28] = tested on: CP286; test: as above; conditions: P. falciparum in erythrocytes, SYBR Green DNA, 72 h; series mostly up to 28.7 µM
Method in brief: as §6

[29] = tested on: DIV14; test: as above; conditions: P. falciparum in erythrocytes, SYBR Green DNA, 72 h; series mostly up to 28.7 µM
Method in brief: as §6

Nc1ccc(S(=O)(=O)Nc2ccnn2-c2ccccc2)cc1
inconclusive: Potency [1] 33.2 µM [cytotoxic, single point] | Potency [3] 7.43 µM [cytotoxic, partial curve, poor fit] | Potency [6] 8.3 nM [rising, full curve, poor fit] | Potency [8] 1 nM | Potency [9] 5.3 nM [rising, full curve, poor fit] | Potency [15] 37.2 µM [rising, single point] | Potency [16] 33.2 µM [cytotoxic, single point] | Potency [18] 1.7 nM [rising, full curve, poor fit] | Potency [19] 4.69 µM [cytotoxic, full curve, poor fit] | Potency [20] 1.9 nM [rising, full curve, poor fit] | Potency [22] 1 nM [cytotoxic] | Potency [25] 17.8 µM [rising, single point] | Potency [26] 5.1 µM [inhibitor, single point]
inactive: Potency [2] | Potency [4] | Potency [5] | Potency [7] | Potency [10] | Potency [11] | Potency [12] | Potency [13] | Potency [14] | viability [17] 145% | Potency [21] | Potency [23] | Potency [24] | Potency [27] | Potency [28] | Potency [29]
